Literature values as cited in US12168006B2, “Cancer therapy by degrading dual MEK signaling” (The Board of Trustees of the University of Illinois, priority 2017, dated 2024).

System: AKT
Settings: at 1 μM; cited from earlier work

Cc1ccc(NC(=O)c2ccc(CN3CCN(C)CC3)cc2)cc1Nc1nccc(-c2cccnc2)n1 [Imatinib]
% Inhibition of AKT: 3.2% at 1 μM
